Data source: PubChem BioAssay AID1508597 (Cure First, 2020)
Shown is an unselected part of the about 2,100 reagents, under one of the conditions tested. 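Calls flag viability under 80% in either arm, not effects specific to rucaparib; the reference for percent is not stated.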 A reagent listed more than once was tested more than once; the source does not tell the runs apart. No sequences are given here. The record does not give: the 100% reference.

Purpose: 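Knock-downs altering ovarian cancer cell survival with or without PARP inhibitor rucaparib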 (primary screen)
Cell system: human ovarian carcinoma lines grown from tumours: OCI-P5x (papillary serous) and OCI-C5x (clear cell)
Reagents: siRNA pool against human genes, 1.25 pmol siRNA per well
Duration: 72 h or 96 h, depending on the cell culture
Treatment: rucaparib 20 µM (about IC30) or vehicle, present until read-out
Rucaparib or vehicle: Vehicle
Cell line: OCI-P5x (serous)
Detection: 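Luminescent ATP-based viability assay read 72 or 96 h after transfection, depending on culture, given as normalised percent viability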
Reading the numbers: viability, normalised: higher = more viable cells remaining
Hit rule: 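Active when normalised viability falls below 80 percent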
Calls: active = viability under 80%; inactive = viability 80% or more

no.	gene	technical replicate	viability, normalised (%)	Call
1	HDGFL2 (HDGF like 2)	1	62.4	active
2	HDGFL2 (HDGF like 2)	2	76.6	active
3	HDGFL2 (HDGF like 2)	3	55.2	active
4	ARID3B (AT-rich interaction domain 3B)	1	44.3	active
5	ARID3B (AT-rich interaction domain 3B)	2	60.6	active
6	ARID3B (AT-rich interaction domain 3B)	3	43.9	active
7	NRG1 (neuregulin 1)	1	53.3	active
8	NRG1 (neuregulin 1)	2	51.2	active
9	NRG1 (neuregulin 1)	3	70.9	active
10	CLK1 (CDC like kinase 1)	1	89.5	inactive
11	CLK1 (CDC like kinase 1)	2	91.9	inactive
12	CLK1 (CDC like kinase 1)	3	92.8	inactive
13	TRIM66 (tripartite motif containing 66)	1	110	inactive
14	TRIM66 (tripartite motif containing 66)	2	133	inactive
15	TRIM66 (tripartite motif containing 66)	3	85.5	inactive
16	SPO11 (SPO11 initiator of meiotic double strand breaks)	1	80.7	inactive
17	SPO11 (SPO11 initiator of meiotic double strand breaks)	2	59.1	active
18	SPO11 (SPO11 initiator of meiotic double strand breaks)	3	69.2	active
19	PHF19 (PHD finger protein 19)	1	46.8	active
20	PHF19 (PHD finger protein 19)	2	51.1	active
21	PHF19 (PHD finger protein 19)	3	70.4	active
22	PLCD4 (phospholipase C delta 4)	1	66.2	active
23	PLCD4 (phospholipase C delta 4)	2	66.9	active
24	PLCD4 (phospholipase C delta 4)	3	66.2	active
25	PIK3R4 (phosphoinositide-3-kinase regulatory subunit 4)	1	79.2	active
26	PIK3R4 (phosphoinositide-3-kinase regulatory subunit 4)	2	54.5	active
27	PIK3R4 (phosphoinositide-3-kinase regulatory subunit 4)	3	52.5	active
28	EPHA7 (EPH receptor A7)	1	82	inactive
29	EPHA7 (EPH receptor A7)	2	104	inactive
30	EPHA7 (EPH receptor A7)	3	98.9	inactive
31	TRPM7	1	90	inactive
32	TRPM7	2	68.3	active
33	TRPM7	3	78	active
34	ROCK1 (Rho associated coiled-coil containing protein kinase 1)	1	100	inactive
35	ROCK1 (Rho associated coiled-coil containing protein kinase 1)	2	108	inactive
36	ROCK1 (Rho associated coiled-coil containing protein kinase 1)	3	109	inactive
37	RUVBL2 (RuvB like AAA ATPase 2)	1	90.7	inactive
38	RUVBL2 (RuvB like AAA ATPase 2)	1	63.1	active
39	RUVBL2 (RuvB like AAA ATPase 2)	2	89.9	inactive
40	RUVBL2 (RuvB like AAA ATPase 2)	2	80.5	inactive
41	RUVBL2 (RuvB like AAA ATPase 2)	3	99.5	inactive
42	RUVBL2 (RuvB like AAA ATPase 2)	3	75.1	active
43	ADCK2 (aarF domain containing kinase 2)	1	86.6	inactive
44	ADCK2 (aarF domain containing kinase 2)	2	77.5	active
45	ADCK2 (aarF domain containing kinase 2)	3	67.9	active
46	H1-4 (H1.4 linker histone, cluster member)	1	83.4	inactive
47	H1-4 (H1.4 linker histone, cluster member)	2	51	active
48	H1-4 (H1.4 linker histone, cluster member)	3	68.4	active
49	L3MBTL2 (L3MBTL histone methyl-lysine binding protein 2)	1	64.2	active
50	L3MBTL2 (L3MBTL histone methyl-lysine binding protein 2)	2	68	active
51	L3MBTL2 (L3MBTL histone methyl-lysine binding protein 2)	3	70	active
52	ENY2 (ENY2 transcription and export complex 2 subunit)	1	72.5	active
53	ENY2 (ENY2 transcription and export complex 2 subunit)	2	43.1	active
54	ENY2 (ENY2 transcription and export complex 2 subunit)	3	54.4	active
55	MED23 (mediator complex subunit 23)	1	57.3	active
56	MED23 (mediator complex subunit 23)	2	65.2	active
57	MED23 (mediator complex subunit 23)	3	61.5	active

As entered above:
Under “Call”, SPO11 (SPO11 initiator of meiotic double strand breaks), technical replicate 1 shows inactive
For “viability, normalised (%)”, ROCK1 (Rho associated coiled-coil containing protein kinase 1), technical replicate 1 shows 100
Result for L3MBTL2 (L3MBTL histone methyl-lysine binding protein 2), technical replicate 1 under “viability, normalised (%)”: 64.2
CLK1 (CDC like kinase 1), technical replicate 3, viability, normalised (%) = 92.8
Under “viability, normalised (%)”, ARID3B (AT-rich interaction domain 3B), technical replicate 3 reads 43.9
PHF19 (PHD finger protein 19), technical replicate 3, Call → active
